Measurements reported in PubChem BioAssay AID1259254 (NCATS, 2017).
Screen: 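Gene knock-downs that lead to re-replication, shown by excess G2 DNA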 (primary screen). System: human HCT116 colorectal cancer cells. Reagents: single siRNA against human genes. Time to read-out: 3 days. Detection: 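Nuclei stained with Hoechst and imaged; cell-cycle phase assigned by DNA content; G2 share scaled per plate, non-targeting siRNA 0%, GMNN siRNA 100%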. Reading the numbers: G2 robust z-score and G2 cells, % of GMNN control: higher = more G2 cells, more excess DNA replication; raw share of cells in G2: higher = larger share of cells with G2 DNA content. Hit rule: 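Active siRNAs have a G2 robust z of 5 or more median absolute deviations over the median, which in these data means about 38% or higher of GMNN control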.
Shown is one part, drawn at random, of about 59,000 reagents tested. About 1,550 of them (2.6%) count as active. 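G2 share is only a proxy for re-replication; each gene was hit by three separate siRNAs, and active genes were retested.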 Raw values are not corrected between plates. The numbers tell different reagents against one gene apart. Not given: the amount of reagent.

| gene | reagent no. | G2 robust z-score | G2 cells, % of GMNN control | raw share of cells in G2 (%) | activity call |
| --- | --- | --- | --- | --- | --- |
| USP15 (ubiquitin specific peptidase 15) | 1 | -1.2 | -5.46 | 3.66 | inactive |
| USP15 (ubiquitin specific peptidase 15) | 2 | -0.388 | 0.234 | 4.99 | inactive |
| USP15 (ubiquitin specific peptidase 15) | 3 | 0.522 | 6.64 | 6.39 | inactive |
| TOR1A (torsin family 1 member A) | 1 | 1.84 | 15.9 | 9.33 | inactive |
| TOR1A (torsin family 1 member A) | 2 | -0.848 | -3 | 4.12 | inactive |
| TOR1A (torsin family 1 member A) | 3 | -1.21 | -5.55 | 3.22 | inactive |
| SMIM29 (small integral membrane protein 29) | 1 | 0.536 | 6.74 | 5.44 | inactive |
| SMIM29 (small integral membrane protein 29) | 2 | 0.355 | 5.46 | 4.94 | inactive |
| SMIM29 (small integral membrane protein 29) | 3 | 0.301 | 5.09 | 5.42 | inactive |
| ZNF557 (zinc finger protein 557) | 1 | 1.21 | 11.5 | 6.84 | inactive |
| ZNF557 (zinc finger protein 557) | 2 | 0.883 | 9.18 | 10.1 | inactive |
| ZNF557 (zinc finger protein 557) | 3 | 3.09 | 24.7 | 11.4 | inactive |
| AGO4 (argonaute RISC component 4) | 1 | -1.16 | -5.19 | 1.74 | inactive |
| AGO4 (argonaute RISC component 4) | 2 | 8.62 | 63.6 | 24.3 | active |
| AGO4 (argonaute RISC component 4) | 3 | -0.775 | -2.48 | 1.98 | inactive |
| GZMH (granzyme H) | 1 | -0.97 | -3.86 | 4.21 | inactive |
| GZMH (granzyme H) | 2 | -0.0588 | 2.55 | 5.81 | inactive |
| GZMH (granzyme H) | 3 | -0.902 | -3.38 | 2.65 | inactive |
| SIPA1L1 (signal induced proliferation associated 1 like 1) | 1 | 1.35 | 12.4 | 11.8 | inactive |
| SIPA1L1 (signal induced proliferation associated 1 like 1) | 2 | -0.411 | 0.0783 | 4.21 | inactive |
| SIPA1L1 (signal induced proliferation associated 1 like 1) | 3 | -1.47 | -7.39 | 1.57 | inactive |
| TTC13 (tetratricopeptide repeat domain 13) | 1 | 0.42 | 5.92 | 8.1 | inactive |
| TTC13 (tetratricopeptide repeat domain 13) | 2 | 0.725 | 8.07 | 7.2 | inactive |
| TTC13 (tetratricopeptide repeat domain 13) | 3 | 2.11 | 17.8 | 10.7 | inactive |
| OXTR (oxytocin receptor) | 1 | 2.1 | 17.7 | 12.2 | inactive |
| OXTR (oxytocin receptor) | 2 | -0.425 | -0.0214 | 4.51 | inactive |
| OXTR (oxytocin receptor) | 3 | 0.167 | 4.14 | 4.54 | inactive |
| LGALS3 (galectin 3) | 1 | -1.16 | -5.2 | 1.48 | inactive |
| LGALS3 (galectin 3) | 2 | -0.395 | 0.185 | 5.54 | inactive |
| LGALS3 (galectin 3) | 3 | -0.472 | -0.352 | 5.22 | inactive |
| GK5 (glycerol kinase 5) | 1 | -1.54 | -7.87 | 3.14 | inactive |
| GK5 (glycerol kinase 5) | 2 | -0.672 | -1.76 | 4.55 | inactive |
| GK5 (glycerol kinase 5) | 3 | 9.21 | 67.8 | 25.4 | active |
| A1BG (alpha-1-B glycoprotein) | 1 | 0.141 | 3.96 | 7.16 | inactive |
| A1BG (alpha-1-B glycoprotein) | 2 | 1.7 | 15 | 9.57 | inactive |
| A1BG (alpha-1-B glycoprotein) | 3 | 2.3 | 19.2 | 11 | inactive |
| FAAHP1 (fatty acid amide hydrolase pseudogene 1) | 1 | 0.158 | 4.08 | 4.7 | inactive |
| FAAHP1 (fatty acid amide hydrolase pseudogene 1) | 2 | 3.67 | 28.8 | 15 | inactive |
| FAAHP1 (fatty acid amide hydrolase pseudogene 1) | 3 | -0.895 | -3.33 | 2.24 | inactive |
| LINC01551 (long independently transcribed non-coding RNA 1551) | 1 | 0.79 | 8.53 | 6.69 | inactive |
| LINC01551 (long independently transcribed non-coding RNA 1551) | 2 | 1.63 | 14.5 | 9.7 | inactive |
| LINC01551 (long independently transcribed non-coding RNA 1551) | 3 | 1.24 | 11.7 | 9.65 | inactive |
| ZPBP (zona pellucida binding protein) | 1 | 0.192 | 4.32 | 6.68 | inactive |
| ZPBP (zona pellucida binding protein) | 2 | 0.00484 | 3 | 5.37 | inactive |
| ZPBP (zona pellucida binding protein) | 3 | -0.267 | 1.09 | 3.58 | inactive |
| IL17RD (interleukin 17 receptor D) | 1 | 1.68 | 14.8 | 8.89 | inactive |
| IL17RD (interleukin 17 receptor D) | 2 | 0.928 | 9.49 | 8.27 | inactive |
| IL17RD (interleukin 17 receptor D) | 3 | -0.389 | 0.228 | 3.27 | inactive |
| GLTPP1 (glycolipid transfer protein pseudogene 1) | 1 | -0.993 | -4.02 | 1.83 | inactive |
| GLTPP1 (glycolipid transfer protein pseudogene 1) | 2 | -0.397 | 0.175 | 3.2 | inactive |
| GLTPP1 (glycolipid transfer protein pseudogene 1) | 3 | -0.561 | -0.979 | 3.27 | inactive |

13 entries already listed, sorted by “G2 robust z-score”, lowest first.
| gene | reagent no. | G2 robust z-score | G2 cells, % of GMNN control | raw share of cells in G2 (%) | activity call |
| --- | --- | --- | --- | --- | --- |
| SIPA1L1 (signal induced proliferation associated 1 like 1) | 3 | -1.47 | -7.39 | 1.57 | inactive |
| AGO4 (argonaute RISC component 4) | 1 | -1.16 | -5.19 | 1.74 | inactive |
| GZMH (granzyme H) | 1 | -0.97 | -3.86 | 4.21 | inactive |
| GZMH (granzyme H) | 3 | -0.902 | -3.38 | 2.65 | inactive |
| AGO4 (argonaute RISC component 4) | 3 | -0.775 | -2.48 | 1.98 | inactive |
| SIPA1L1 (signal induced proliferation associated 1 like 1) | 2 | -0.411 | 0.0783 | 4.21 | inactive |
| GZMH (granzyme H) | 2 | -0.0588 | 2.55 | 5.81 | inactive |
| SMIM29 (small integral membrane protein 29) | 3 | 0.301 | 5.09 | 5.42 | inactive |
| ZNF557 (zinc finger protein 557) | 2 | 0.883 | 9.18 | 10.1 | inactive |
| ZNF557 (zinc finger protein 557) | 1 | 1.21 | 11.5 | 6.84 | inactive |
| SIPA1L1 (signal induced proliferation associated 1 like 1) | 1 | 1.35 | 12.4 | 11.8 | inactive |
| ZNF557 (zinc finger protein 557) | 3 | 3.09 | 24.7 | 11.4 | inactive |
| AGO4 (argonaute RISC component 4) | 2 | 8.62 | 63.6 | 24.3 | active |

Further entries follow.
| gene | reagent no. | G2 robust z-score | G2 cells, % of GMNN control | raw share of cells in G2 (%) | activity call |
| --- | --- | --- | --- | --- | --- |
| PLEKHF1 (pleckstrin homology and FYVE domain containing 1) | 1 | 0.388 | 5.69 | 4.8 | inactive |
| PLEKHF1 (pleckstrin homology and FYVE domain containing 1) | 2 | 0.921 | 9.45 | 10.2 | inactive |
| PLEKHF1 (pleckstrin homology and FYVE domain containing 1) | 3 | 0.0386 | 3.24 | 4.65 | inactive |
| LINC02910 (long intergenic non-protein coding RNA 2910) | 1 | 1.47 | 13.3 | 8.5 | inactive |
| LINC02910 (long intergenic non-protein coding RNA 2910) | 2 | -0.688 | -1.87 | 2.32 | inactive |
| LINC02910 (long intergenic non-protein coding RNA 2910) | 3 | 0.112 | 3.76 | 4.41 | inactive |
| SUMO3 (small ubiquitin like modifier 3) | 1 | 0.325 | 5.25 | 7.21 | inactive |
| SUMO3 (small ubiquitin like modifier 3) | 2 | 3.33 | 26.4 | 14.7 | inactive |
| SUMO3 (small ubiquitin like modifier 3) | 3 | 1.36 | 12.5 | 7.87 | inactive |
| SMYD2 (SET and MYND domain containing 2) | 1 | -0.0255 | 2.79 | 3.78 | inactive |
| SMYD2 (SET and MYND domain containing 2) | 2 | -0.647 | -1.58 | 5.19 | inactive |
| SMYD2 (SET and MYND domain containing 2) | 3 | 1.95 | 16.7 | 8.87 | inactive |
| TMEM163 (transmembrane protein 163) | 1 | -0.85 | -3.01 | 3.11 | inactive |
| TMEM163 (transmembrane protein 163) | 2 | -0.461 | -0.275 | 3.38 | inactive |
| TMEM163 (transmembrane protein 163) | 3 | 0.492 | 6.43 | 4.36 | inactive |
| IL18RAP (interleukin 18 receptor accessory protein) | 1 | -0.326 | 0.677 | 5.5 | inactive |
| IL18RAP (interleukin 18 receptor accessory protein) | 2 | -0.882 | -3.24 | 3.07 | inactive |
| IL18RAP (interleukin 18 receptor accessory protein) | 3 | -0.905 | -3.4 | 3.49 | inactive |
| NADSYN1 (NAD synthetase 1) | 1 | -1.23 | -5.7 | 2.4 | inactive |
| NADSYN1 (NAD synthetase 1) | 2 | -0.0347 | 2.72 | 5.47 | inactive |
| NADSYN1 (NAD synthetase 1) | 3 | -1.07 | -4.56 | 4.43 | inactive |
| POLR2L (RNA polymerase II, I and III subunit L) | 1 | 1.49 | 13.5 | 9.83 | inactive |
| POLR2L (RNA polymerase II, I and III subunit L) | 2 | -1.09 | -4.74 | 2.57 | inactive |
| POLR2L (RNA polymerase II, I and III subunit L) | 3 | 0.65 | 7.54 | 7.57 | inactive |
| PTPN11P4 (PTPN11 pseudogene 4) | 1 | -0.0117 | 2.89 | 4.86 | inactive |
| PTPN11P4 (PTPN11 pseudogene 4) | 2 | -0.706 | -2 | 2.72 | inactive |
| PTPN11P4 (PTPN11 pseudogene 4) | 3 | -0.251 | 1.2 | 5.29 | inactive |
| G2E3 (G2/M-phase specific E3 ubiquitin protein ligase) | 1 | 0.695 | 7.86 | 7.54 | inactive |
| G2E3 (G2/M-phase specific E3 ubiquitin protein ligase) | 2 | 0.697 | 7.87 | 7.4 | inactive |
| G2E3 (G2/M-phase specific E3 ubiquitin protein ligase) | 3 | 5.01 | 38.2 | 15.3 | active |
| SH2D4A (SH2 domain containing 4A) | 1 | -0.304 | 0.829 | 4.94 | inactive |
| SH2D4A (SH2 domain containing 4A) | 2 | 1.74 | 15.2 | 11.4 | inactive |
| SH2D4A (SH2 domain containing 4A) | 3 | 0.431 | 6 | 4.28 | inactive |
| ZNF638 (zinc finger protein 638) | 1 | -0.145 | 1.95 | 4.63 | inactive |
| ZNF638 (zinc finger protein 638) | 2 | -0.112 | 2.18 | 7.15 | inactive |
| ZNF638 (zinc finger protein 638) | 3 | -0.553 | -0.92 | 3.88 | inactive |
